Assay results: patent publication US9017643B2, “Particles comprising a releasable dopant therein” (Australian Nuclear Science and Technology Organisation, priority 2005, dated 2015)

Assay: Encapsulation efficiencies, Example 8 (method not given)
Type: physicochemical
Settings: organosilica particles

Molecule	Encapsulation efficiency
CCCCNc1ccc(NCCCC)c2c1C(=O)c1ccccc1C2=O [Solvent blue 35]	85%
C=C(C)[C@H]1CC=C(C)CC1 [limonene]	23%
CC1=C(/C=C/C(C)=C/C=C/C(C)=C/CO)C(C)(C)CCC1 [retinol]	44%
Sudan red	52%
